Measured values as given in PubChem BioAssay AID2685 (National Center for Advancing Translational Sciences (NCATS), 2010).
The other results are listed elsewhere or left out. Further columns of the screen follow, without active or inactive calls. Compounds called inactive in the main read-out are mostly missing here. The note in brackets gives the kind of curve behind each potency; many fits are weak.

Experiment: qHTS Assay for Lipid Storage Modulators in Drosophila S3 Cells;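 for cell number change: cells counted by Cell Tracker Red CMTPX staining in the red channel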
Conditions: BODIPY lipid droplet fluorescence, 18-24 h; for cell number change: measured here: cell count max response, cells fed with added oleic acid
Summary of the method: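 Drosophila S3 cells loaded with oleic acid (400 uM, as added) and compounds at several concentrations; lipid droplets imaged by 488-nm laser-scanning cytometry, 500–530 nm intensity and object ratio to cell channel. Percent activity normalized to 20 uM Triacsin C.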

[1] = measured here: lipid fluorescence (Fed channel) AC50, cells fed with added oleic acid
[2] = measured here: cell number channel AC50, cells fed with added oleic acid

SMILES | cell number change | AC50 [1] | AC50 [2]
C=CCN=C1N[C@@H](c2cccc(C(F)(F)F)c2)C(C(=O)OC)=C(C)N1CC | -0.299% | 20.6 µM [rising, single point] | 
CCCCn1c(N)c(N(CC)C(=O)c2ccc(C#N)cc2)c(=O)[nH]c1=O | 9.24% | 6.51 µM [falling, single point] | 
O=C(O)CC/C(=N/NC(=O)c1cccs1)c1ccccc1 | 12.3% | 13 µM [rising, single point] | 
CCCc1ccc2oc(C(=O)N3CCNC(=O)C3CC(=O)OC)c(C)c2c1 (configuration not stated) | -6.74% | 0.92 µM [falling, partial curve] | 
COC(=O)C1=C(C)NC(=S)NC1/C=C/c1ccccc1 (configuration not stated) | 28% | 25.9 µM [rising, partial curve] | 
COc1ccc2c3c(c(=O)oc2c1)C1O[C@](CCCCN2C(=O)c4ccccc4C2=O)(Cc2c1ccc1ccccc21)O3 | 11% | 5.31 µM [rising, single point] | 0.0168 µM [rising, partial curve, poor fit]
O=C(CSc1nnnn1Cc1ccccc1)c1ccccc1 | -17.7% | 14.6 µM [falling, partial curve, poor fit] | 
O=C(NCC1COc2ccccc2O1)c1ccc(Cl)c(S(=O)(=O)N2CCCC2)c1 (configuration not stated) | -48.4% | 0.0058 µM [falling, full curve, poor fit] | 7.31 µM [falling, partial curve]
CCOc1c(Cl)cc(Cl)cc1CNCCNCCO | -21.5% |  | 0.103 µM [falling, full curve, poor fit]
O=C(Nc1cc2c3c(c1)CC(=O)N3CCC2)c1ccccc1F |  |  | 2.06 µM [rising, partial curve]
CCc1ccc(NC(=O)C(=O)NNC(=O)c2cccs2)cc1 | 5.56% | 29.1 µM [falling, single point] | 
O=C(OCC(=O)N1CCN(c2ccccc2)CC1)c1ccc(Cl)nc1 | -99.5% | 6.51 µM [rising, full curve, poor fit] | 29.1 µM [falling, partial curve, poor fit]
COc1ccc(OCC(O)CN(CC(O)COc2ccc(OC)cc2)c2cccc(O)c2)cc1 (configuration not stated) | -24.2% | 0.13 µM [falling, full curve, poor fit] | 
COc1ccc(OCc2cccc(C(=O)NN)c2)cc1 | 28.1% | 0.82 µM [falling, full curve] | 
COc1cc(NS(=O)(=O)c2ccc(NC(=S)NC(=O)C3CCCC3)cc2)nc(OC)n1 | 6.42% | 25.9 µM [falling, single point] | 

Looked up one by one from the entries so far, 2 records:
SMILES | cell number change | AC50 [1] | AC50 [2]
O=C(CSc1nnnn1Cc1ccccc1)c1ccccc1 | -17.7% | 14.6 µM [falling, partial curve, poor fit] | 
COc1ccc(OCc2cccc(C(=O)NN)c2)cc1 | 28.1% | 0.82 µM [falling, full curve] | 
